# Results reported in article PMC12040169 (PLOS Biology, 2025).
# The other results are listed elsewhere or left out.
# System: T1, CTL2-GFP (C. trachomatis L2/434/Bu, GFP-expressing)
# T1 construct: L2/434/Bu, GFP-expressing
# Set-up: species or system HeLa; Intracellular C. trachomatis growth in HeLa cells, bulk GFP fluorescence relative to DMSO
# Settings: bulk GFP, single well; 28.5 h, 10 µM; inhibitor
row,SMILES,% of control remaining
1,CCCS(=O)(=O)N1CCN(S(=O)(=O)c2ccc(NC(C)=O)cc2)CC1 [CBK264288],110.531%
2,COc1ccc(-c2nc3ccccc3s2)cc1NC(=O)c1ccc(OCC(C)C)cc1 [CBK268878],148.658%
3,Nc1ncc(-c2ccc(C(=O)N3CCOCC3)cc2)cc1C(=O)NCc1ccc(Cl)c(Cl)c1 [CBK158570],52.7339%
4,CCC1C(=O)NCCN1C(=O)c1cc2cc(C)ccc2n1C (centres unmarked) [CBK281729],106.849%
5,CCN(CC)C(=O)c1sc(NC(=O)c2cc(-c3ccncc3)nc3c(C)cccc23)c(C#N)c1C [CBK267771],134.185%
6,CC(C)c1nc(CN2CCN(c3ccc4nncn4n3)CC2)cs1 [CBK306219],134.934%
7,Cc1n[nH]c2c1CN(Cc1nc(C)c(C)n1C)CC2 [CBK307456],147.134%
8,O=C(Cc1ccsc1)NCCn1nc(-c2cccs2)ccc1=O [CBK283842],112.959%
9,CC(C)CNC(=O)C(=O)NCCc1ccc(F)cc1 [CBK264903],130.727%
10,Cn1nccc1C(=O)NC(Cc1ccsc1)c1cccnc1 (centres unmarked) [CBK285394],105.521%
11,Cc1nc2ccc(C(=O)NCCn3ccnc3C)cc2s1 [CBK282477],149.126%
12,Cc1nc(C)c(C(=O)N2CCC(c3cc4ncccc4[nH]3)CC2)s1 [CBK283396],148.409%
13,CC(C)NC(=O)[C@H]1O[C@H](CCN2CCN(c3ccccn3)CC2)CC[C@@H]1O [CBK288722],110.953%
14,O=C1CCc2cccc(OCCO)c21 [CBK001442],93.4389%
15,O=C(O)c1ccc(NS(=O)(=O)c2ccc(Br)c3ccccc23)cc1O [CBK299772],154.729%
16,C=CCN1CCc2cc(-c3cncn3CC(=O)NC(C)(C)C)ccc21 [CBK281923],144.091%
17,C[C@@H]1CN(C(=O)c2cn(C)c3ccccc23)C[C@H](C)O1 [CBK200235],128.827%
18,CC(C)c1noc(C(C)N2CCN(Cc3noc(C(C)(C)C)n3)CC2)n1 (centres unmarked) [CBK305202],152.765%
19,COc1ccc2c(c1)C1(CC(=O)N(Cc3ccccc3)C1=O)C(=O)N2CC(=O)O (centres unmarked) [CBK076108],100%
20,CNC(=O)C1(Cc2ccccc2-c2ccccc2)CCN(C(=O)Cc2cccc(C)c2)CC1 [CBK285594],101.953%
21,O=C(NCC1CCCN1)c1cnn(-c2ccc(Cl)cc2)c1C(F)(F)F (centres unmarked) [CBK115925C],118.41%
22,CCCCn1nc(C2CC2)nc1-c1cnn2cc(C)cnc12 [CBK306683],132.481%
23,COc1ccc(F)c(CN2CCC3(CCCNC3=O)CC2)c1 [CBK284827],105.865%
24,O=S(=O)(NCc1cccnc1)N1CCOCC1 [CBK269945],148.84%
25,C[C@H](Nc1cncc(-c2cccc(CO)c2)n1)c1ccccc1 [CBK065512],202.912%
26,N#Cc1ccc(C(=O)Nc2ccc3n(c2=O)C[C@H]2C[C@@H]3CN(C(=O)c3ccccc3)C2)cc1 [CBK289073],116.586%

row,SMILES,% of control remaining
1,CC1CCCN(CC(C)(C)NC(=O)c2ccnn2C(F)F)C1 (centres unmarked) [CBK282099],147.097%
2,O=C(COC(=O)c1ccccc1NC(=O)c1ccccc1)c1ccc2ccccc2c1 [CBK265491],118.293%
3,O=C(N[C@H]1CCN2C(=O)[C@H]3CCCN3C(=O)[C@@H]2C1)c1cccs1 [CBK289538],128.207%
4,O=C(Nc1ccc2[nH]ccc2c1)N1CCCC(CO)C1 (centres unmarked) [CBK156044],100%
5,COc1ncccc1-c1csc(N2CCOC(C)C2)n1 (centres unmarked) [CBK304118],119.385%
6,CC(C)(C)c1ccc(Oc2c(C(F)(F)F)oc3cc(OCC(=O)O)ccc3c2=O)cc1 [CBK217882],100%
7,CC(NC(=O)Cc1c[nH]c(=O)[nH]c1=O)c1cc2cc(Cl)ccc2o1 (centres unmarked) [CBK285673],122.216%
8,CCOC(=O)c1ccc(-c2[nH]cnc2-c2c(C)cc(OC)cc2O)o1 [CBK026647],65.2562%
9,c1ccc2c(c1)CCC(CNCCN1CCOCC1)O2 (centres unmarked) [CBK023956G],127.001%
10,Cc1cc(Br)cc(C)c1OCC(=O)NNC(=O)Cc1cccc2ccccc12 [CBK267151],116.511%
11,Cc1ccc(-c2oncc2C(=O)NCc2ccc(S(N)(=O)=O)cc2)cc1 [CBK154912],110.592%
12,COc1cccc(Nc2cc(-c3cccc(N)c3)ncn2)c1OC [CBK090726],144.521%
13,Nc1ncc(-c2cccc(Br)c2)nc1NC1CCOCC1 [CBK063854],128.703%
14,Cc1cc(-c2cn3cc(C(=O)NCCO)nc3c(=O)n2C)c(C)o1 [CBK307288],98.6279%
15,Cc1cc(C2CCCCCN2C(=O)c2ccccc2F)on1 (centres unmarked) [CBK284842],136.946%
16,Cc1ccc(S(=O)(=O)NCCSc2ccccn2)cc1[N+](=O)[O-] [CBK263566],100%
17,Cc1cc(C)c(C#N)c(N2CCOC3(CCN(C(=O)OCc4ccccc4)CC3)C2)n1 [CBK161114T],142.956%
18,CSc1ccc(-c2cn3ccnc3c(N3CCN(CCO)CC3)n2)cc1 [CBK066596],170.105%
19,COc1ccc(C)cc1S(=O)(=O)n1cc2c3c(cccc31)CN(C(=O)CN(C)C)C2 [CBK155549T],107.828%
20,COc1ccc(C(=O)Nc2cc(C)c3c(=O)oc4ccccc4c3n2)cc1 [CBK287435],140.97%
21,O=C(O)C1CC=CCC1C(=O)c1c[nH]c2ccccc12 (centres unmarked) [CBK286603],120.017%
22,N#Cc1ccccc1COC(=O)c1cc(-c2ccc(/C=C/c3[nH]c(=O)[nH]c(=O)c3[N+](=O)[O-])o2)ccc1Cl [CBK268888],90.8093%
23,O=C(c1coc2ccc(O)c(CN3CCCCC3)c12)C1CC1 [CBK263206C],117.391%
24,COc1ccc(OC)c(CN(C(=O)c2oc3ccc(F)cc3c2C)c2cnn(C)c2)c1 [CBK298278],159.028%
25,O=[N+]([O-])c1ccc(CN(CCc2ccccc2)Cc2ccccc2)cc1 [CBK261866],117.812%
26,CC(NC(=O)c1cn(-c2ccccc2)nc1-c1cccnc1)c1ccccn1 (centres unmarked) [CBK295660],112.752%

row,SMILES,% of control remaining
1,N#CCC(=O)Nc1ccc(C(=O)N2CCN(c3ccccc3)CC2)cc1 [CBK306060],124.337%
2,Cc1cccc(-c2ncc(NC(=O)CCc3cccc(Cl)c3)nc2-c2cccnc2)c1 [CBK037201],87.4669%
3,Cc1cc2c(o1)CCc1sc(N(C)C(=O)C3CC(=O)N(C)C3)nc1-2 (centres unmarked) [CBK283980],116.347%
4,C[C@@H](Nc1cncc(-c2ccc(F)cc2F)n1)c1ccccc1 [CBK065676],87.2004%
5,CCCOc1ccc(-c2cn(CC(=O)NN)cn2)cc1 [CBK261790],112.822%
6,CCn1c(C2CCN(C(=O)c3cc(C(F)(F)F)n[nH]3)CC2)nn(C)c1=O [CBK307184],106.572%
7,Cc1noc(C)c1C(=O)Nc1cnc(-c2cccc(C(F)(F)F)c2)c(-c2cccnc2)n1 [CBK036727],102.072%
8,COC(=O)Nc1ccc2c(c1)N(C(=O)CCN1CCOCC1)c1ccccc1CC2 [CBK261284C],115.724%
9,CCN(CC)c1ccc(C(=O)Cn2c(=O)n(C(=O)c3cccc(S(C)(=O)=O)c3)c3ccccc32)cc1 [CBK106500],66.356%
10,Cc1nc2c(C(=O)NCC3CCCO3)cnn2c(C)c1Cc1cccnc1 (centres unmarked) [CBK162160],152.679%
11,Cc1cc(=O)n2ccc(CN3CCOCC3)c(O)c2n1 [CBK262899C],144.668%
12,C=CCn1c(SCC(=O)Nc2ccnc3ccccc23)nnc1-c1cccnc1 [CBK268723],126.998%
13,Cn1cc(CCCCNC(=O)Cc2c[nH]c3ccc(Cl)cc23)cn1 [CBK306364],116.515%
14,CCNC(=O)N1CC2(CCN(CC3COc4ccccc4O3)CC2)c2ccccc21 (centres unmarked) [CBK143944],107.237%
15,O=C1[C@@H]2CCCN2C(=O)c2ccccc2N1CCN1CCCC1 [CBK282857],98.1354%
16,O=C(CSc1nnc(-c2ccc(F)cc2)n1-c1ccccc1)Nc1cccc2ccccc12 [CBK267592],118.384%
17,O=c1[nH]c(=O)c2cc(S(=O)(=O)NCc3ccccc3CN3CCCC3)ccc2[nH]1 [CBK286395],93.3532%
18,CCN1CCN(C(=O)CN(C)S(=O)(=O)c2ccc(Cl)cc2)CC1 [CBK267218],129.34%
19,COc1ccc(C(=O)Nc2cc(C)c3c(=O)oc4ccccc4c3n2)c(OC)c1 [CBK291231],154.357%
20,CC(C)(CNC(=O)Cn1cccc(C(=O)Nc2ccc(F)cc2)c1=O)c1ccccc1F [CBK286067],123.759%
21,CC(=O)c1ccc(-c2nc(NC(=O)CC3OC(=O)c4ccccc43)cnc2-c2cccc(C)c2)s1 (centres unmarked) [CBK037152],175.524%
22,FC(F)(F)Oc1ccc(-n2cc(-c3ccsc3)nn2)cc1 [CBK113096],148.226%
23,CC(C)(CO)CNc1cncc(-c2ccc(O)cc2)n1 [CBK065386],173.706%
24,Cc1cccc(CN2CCC(NC(=O)Cn3ccccc3=O)CC2)c1 [CBK305667],95.9275%
25,O=C(O)c1cccc2c1C(=O)N(Cc1ccncc1)C2 [CBK291146],156.718%

# Quoted at random: 4 records from the list
row,SMILES,% of control remaining
4,CCC1C(=O)NCCN1C(=O)c1cc2cc(C)ccc2n1C (centres unmarked) [CBK281729],106.849%
13,Nc1ncc(-c2cccc(Br)c2)nc1NC1CCOCC1 [CBK063854],128.703%
9,CC(C)CNC(=O)C(=O)NCCc1ccc(F)cc1 [CBK264903],130.727%
1,N#CCC(=O)Nc1ccc(C(=O)N2CCN(c3ccccc3)CC2)cc1 [CBK306060],124.337%
